The target of this experiment is T1, TIPE1-3×FLAG (tumor necrosis factor alpha-induced protein 8-like protein 1) (UniProt Q8WVP5).
T1 sequence: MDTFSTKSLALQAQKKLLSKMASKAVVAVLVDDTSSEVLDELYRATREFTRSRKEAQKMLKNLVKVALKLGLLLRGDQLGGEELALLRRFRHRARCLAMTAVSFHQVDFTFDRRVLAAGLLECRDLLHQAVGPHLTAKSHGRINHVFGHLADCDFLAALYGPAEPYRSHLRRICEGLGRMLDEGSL
Put plainly: affinity purification with mass spectrometry; lysate of MNNG/HOS Cl #5 cells 48 h after TIPE1-3×FLAG lentivirus; FLAG-conjugated beads, washed 8 times with RIPA buffer, eluted with 3×FLAG peptide; SDS-PAGE bands analysed by LC-MS/MS; control without TIPE1-3×FLAG.

By UniProt entry, the sequences of proteins in these tests, tags left out.
UniProt Q99873: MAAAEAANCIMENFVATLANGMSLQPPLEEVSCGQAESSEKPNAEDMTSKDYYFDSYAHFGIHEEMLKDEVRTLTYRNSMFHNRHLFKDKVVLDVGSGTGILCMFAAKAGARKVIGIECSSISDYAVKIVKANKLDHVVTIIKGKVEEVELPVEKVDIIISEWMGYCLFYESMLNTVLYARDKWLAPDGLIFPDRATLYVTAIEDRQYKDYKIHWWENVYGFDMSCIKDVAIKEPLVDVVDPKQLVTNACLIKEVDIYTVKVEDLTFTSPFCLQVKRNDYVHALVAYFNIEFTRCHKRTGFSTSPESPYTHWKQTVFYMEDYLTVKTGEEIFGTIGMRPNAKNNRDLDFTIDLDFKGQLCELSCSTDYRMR

Results are given in words; binding and its absence hold for the method and conditions named. In cells and extracts the contact can be indirect. Here binding means that the protein was enriched with, or labelled near, the bait; the list need not be complete. Where a sequence is shown, tags or fusion partners need not be part of it.

The results in this text go back to publication PMC9508122.

Turning to “Protein arginine N-methyltransferase 1 (PRMT1), endogenous (from UniProt Q99873 1-371) (enzyme)”, the binding entry is “binds”.
